From patent US20040086863A1 come the findings set out here.

Amino acid sequences for entries named in this document (tags omitted). Residues count along the entry.
UniProt P35570, residues 3-133: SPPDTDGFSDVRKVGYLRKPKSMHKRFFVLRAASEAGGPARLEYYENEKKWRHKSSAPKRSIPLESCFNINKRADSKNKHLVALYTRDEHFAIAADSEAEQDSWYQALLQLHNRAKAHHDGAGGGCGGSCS
UniProt P35568: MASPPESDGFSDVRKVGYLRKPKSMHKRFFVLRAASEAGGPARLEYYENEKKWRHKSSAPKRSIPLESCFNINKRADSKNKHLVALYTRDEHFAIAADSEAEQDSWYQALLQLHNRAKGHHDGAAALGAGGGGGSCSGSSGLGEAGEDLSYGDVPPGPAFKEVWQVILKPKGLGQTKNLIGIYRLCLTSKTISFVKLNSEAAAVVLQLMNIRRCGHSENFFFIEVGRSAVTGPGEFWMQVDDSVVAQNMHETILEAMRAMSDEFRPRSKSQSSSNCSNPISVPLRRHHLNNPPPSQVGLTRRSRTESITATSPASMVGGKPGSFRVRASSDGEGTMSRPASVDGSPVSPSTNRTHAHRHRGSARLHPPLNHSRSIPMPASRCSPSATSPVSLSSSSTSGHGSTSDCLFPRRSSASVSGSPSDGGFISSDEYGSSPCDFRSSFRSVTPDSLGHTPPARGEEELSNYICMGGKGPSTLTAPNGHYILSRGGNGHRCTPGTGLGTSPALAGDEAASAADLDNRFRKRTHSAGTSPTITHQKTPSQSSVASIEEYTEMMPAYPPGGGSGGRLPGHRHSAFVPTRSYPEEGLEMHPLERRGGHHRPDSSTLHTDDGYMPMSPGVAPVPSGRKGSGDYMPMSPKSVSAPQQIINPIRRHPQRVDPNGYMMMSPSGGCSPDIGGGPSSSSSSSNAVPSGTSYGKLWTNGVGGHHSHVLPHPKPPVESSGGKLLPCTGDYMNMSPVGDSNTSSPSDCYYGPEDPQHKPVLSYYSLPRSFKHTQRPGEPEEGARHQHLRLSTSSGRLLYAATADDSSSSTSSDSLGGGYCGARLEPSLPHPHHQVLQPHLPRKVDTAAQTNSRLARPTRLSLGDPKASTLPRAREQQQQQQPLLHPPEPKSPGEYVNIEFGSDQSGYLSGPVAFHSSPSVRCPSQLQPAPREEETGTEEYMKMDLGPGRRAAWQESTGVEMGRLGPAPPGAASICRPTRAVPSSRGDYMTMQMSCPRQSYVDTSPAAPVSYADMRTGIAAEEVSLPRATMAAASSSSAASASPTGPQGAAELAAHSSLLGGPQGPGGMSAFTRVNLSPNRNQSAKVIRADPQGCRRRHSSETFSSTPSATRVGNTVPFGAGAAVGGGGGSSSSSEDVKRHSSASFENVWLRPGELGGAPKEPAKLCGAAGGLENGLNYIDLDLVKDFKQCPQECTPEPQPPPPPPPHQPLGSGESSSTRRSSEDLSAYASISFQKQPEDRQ
UniProt P35569: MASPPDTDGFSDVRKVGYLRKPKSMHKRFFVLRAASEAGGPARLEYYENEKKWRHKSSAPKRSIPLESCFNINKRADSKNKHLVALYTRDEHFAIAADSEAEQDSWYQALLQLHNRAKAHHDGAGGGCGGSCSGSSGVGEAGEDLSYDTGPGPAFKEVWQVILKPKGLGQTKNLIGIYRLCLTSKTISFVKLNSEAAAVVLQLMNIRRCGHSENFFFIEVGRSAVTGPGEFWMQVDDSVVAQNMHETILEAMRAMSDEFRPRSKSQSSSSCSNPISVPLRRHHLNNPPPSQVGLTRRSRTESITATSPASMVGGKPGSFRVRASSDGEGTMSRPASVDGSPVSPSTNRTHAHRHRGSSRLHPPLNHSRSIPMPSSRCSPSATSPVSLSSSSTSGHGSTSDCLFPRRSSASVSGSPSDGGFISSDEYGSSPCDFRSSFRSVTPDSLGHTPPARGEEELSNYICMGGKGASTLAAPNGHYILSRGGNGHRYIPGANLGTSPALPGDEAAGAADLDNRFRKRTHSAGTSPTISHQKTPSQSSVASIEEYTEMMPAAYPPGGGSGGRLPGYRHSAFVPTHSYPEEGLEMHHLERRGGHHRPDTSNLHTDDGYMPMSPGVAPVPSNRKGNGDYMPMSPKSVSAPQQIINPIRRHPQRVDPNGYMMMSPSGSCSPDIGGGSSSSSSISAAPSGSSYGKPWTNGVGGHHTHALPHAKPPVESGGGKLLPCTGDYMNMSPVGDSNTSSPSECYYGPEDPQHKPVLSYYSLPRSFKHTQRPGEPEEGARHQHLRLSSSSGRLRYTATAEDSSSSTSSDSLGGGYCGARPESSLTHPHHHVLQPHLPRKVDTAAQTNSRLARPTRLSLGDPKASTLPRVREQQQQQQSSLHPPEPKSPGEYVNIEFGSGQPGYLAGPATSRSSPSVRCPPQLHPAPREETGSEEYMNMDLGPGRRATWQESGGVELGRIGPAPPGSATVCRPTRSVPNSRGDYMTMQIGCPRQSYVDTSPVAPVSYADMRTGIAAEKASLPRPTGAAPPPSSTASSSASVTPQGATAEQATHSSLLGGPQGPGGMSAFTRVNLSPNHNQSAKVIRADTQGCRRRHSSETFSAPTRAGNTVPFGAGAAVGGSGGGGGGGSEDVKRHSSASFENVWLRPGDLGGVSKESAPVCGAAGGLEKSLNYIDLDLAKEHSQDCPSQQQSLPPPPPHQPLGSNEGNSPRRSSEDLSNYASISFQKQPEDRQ

Test [1] addresses HA-tagged IRS-1 PH domain (PH^WT, IRS-1 residues 3-133) (rat) (UniProt P35570). The test is described as follows: GST pull-down from yeast lysates, anti-HA western blot. (In general: In western blotting, separated proteins are transferred to a membrane and probed.)
For test [2] the target is unchanged. The test is described as follows: GST pull-down from yeast lysates, anti-HA western blot (FIG. 2C).
For test [3], the target named is IRS-1, endogenous in human kidney 293 cells (human) (UniProt P35568). The test is described as follows: co-immunoprecipitation from 293 cell extracts with antibodies to the PHIP PBR (FIG. 2F).
For test [4], the target named is IRS-1, endogenous in NIH/IR cells (NIH3T3 cells overexpressing the insulin receptor) (mouse) (UniProt P35569). Briefly: co-immunoprecipitation from NIH/IR lysates with anti-IRS-1 C-terminus antibodies.
The target is the same in test [5]. Briefly: co-immunoprecipitation from NIH/IR lysates (FIG. 2E).

These are yes or no findings as the source states them, for the method shown. In cells and extracts the contact can be indirect. Some entries that bind do so weakly or less than the wild type.

For the substance “GST-PHIP fusion protein containing PHIP residues 8-209 (PBR) isolated from the yeast clone VP1.32 (from UniProt Q8VDD9 927-1128)”, the binding result in test [1] and in test [2] was “binds” each time.
For the substance “human PHIP (hPHIP), endogenous in U266, A431 and 293 cells (from UniProt Q8WWQ0 924-1821)”, the binding result in test [3] is on record as “binds”.
As for “mouse PHIP (mPHIP), endogenous in NIH/IR and NIH/3T3 cells (from UniProt Q8VDD9 924-1821)”, the binding entry in test [4] and in test [5] was “binds” each time.
